Measurements reported in the supplement of paper PMC10849652.
Some of the results follow.

Sequences of proteins named here, by UniProt entry; tags and fusion partners are left off. A change or cut given only in a name is not applied to a line headed by its entry.
UniProt Q96I15: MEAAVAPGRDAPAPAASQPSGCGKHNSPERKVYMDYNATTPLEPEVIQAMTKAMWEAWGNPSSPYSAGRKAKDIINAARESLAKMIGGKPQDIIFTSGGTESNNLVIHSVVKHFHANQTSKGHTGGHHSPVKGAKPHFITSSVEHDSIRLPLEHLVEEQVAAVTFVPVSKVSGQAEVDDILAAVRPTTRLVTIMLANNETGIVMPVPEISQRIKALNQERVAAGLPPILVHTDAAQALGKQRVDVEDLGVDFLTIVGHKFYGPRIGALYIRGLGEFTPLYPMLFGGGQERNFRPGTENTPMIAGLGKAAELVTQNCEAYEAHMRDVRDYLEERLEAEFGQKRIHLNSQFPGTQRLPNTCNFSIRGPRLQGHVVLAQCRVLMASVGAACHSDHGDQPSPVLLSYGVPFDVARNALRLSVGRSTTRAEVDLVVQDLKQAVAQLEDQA
UniProt Q16181: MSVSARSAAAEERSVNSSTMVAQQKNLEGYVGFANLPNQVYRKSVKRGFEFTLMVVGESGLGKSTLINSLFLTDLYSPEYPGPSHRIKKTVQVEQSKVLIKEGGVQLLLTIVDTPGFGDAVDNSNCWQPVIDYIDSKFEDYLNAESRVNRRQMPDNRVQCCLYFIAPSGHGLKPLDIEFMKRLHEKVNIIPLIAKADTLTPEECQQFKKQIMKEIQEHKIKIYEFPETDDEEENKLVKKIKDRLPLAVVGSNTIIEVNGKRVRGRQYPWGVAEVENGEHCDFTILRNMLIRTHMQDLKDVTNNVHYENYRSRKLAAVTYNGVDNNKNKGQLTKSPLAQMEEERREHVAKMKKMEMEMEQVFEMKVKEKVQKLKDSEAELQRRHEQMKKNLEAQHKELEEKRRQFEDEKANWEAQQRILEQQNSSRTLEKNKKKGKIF
UniProt Q8IZQ5, whole entry, looked up: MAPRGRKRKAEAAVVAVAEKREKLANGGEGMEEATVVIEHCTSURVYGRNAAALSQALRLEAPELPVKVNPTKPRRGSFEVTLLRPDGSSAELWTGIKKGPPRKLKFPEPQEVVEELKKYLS
UniProt Q9NRG7: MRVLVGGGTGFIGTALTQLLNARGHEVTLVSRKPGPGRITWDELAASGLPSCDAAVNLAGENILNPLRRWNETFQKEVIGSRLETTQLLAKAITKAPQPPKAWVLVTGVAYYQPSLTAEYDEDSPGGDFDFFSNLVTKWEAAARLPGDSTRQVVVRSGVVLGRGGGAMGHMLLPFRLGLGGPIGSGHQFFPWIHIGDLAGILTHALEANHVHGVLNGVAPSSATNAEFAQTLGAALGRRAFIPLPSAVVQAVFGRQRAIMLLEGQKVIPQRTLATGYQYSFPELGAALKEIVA
UniProt P62341, whole entry, looked up: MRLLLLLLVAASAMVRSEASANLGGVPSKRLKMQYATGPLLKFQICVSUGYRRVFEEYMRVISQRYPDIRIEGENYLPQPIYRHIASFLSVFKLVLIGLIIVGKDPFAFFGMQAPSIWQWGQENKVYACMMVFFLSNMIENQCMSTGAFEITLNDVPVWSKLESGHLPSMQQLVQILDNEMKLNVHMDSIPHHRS
UniProt Q9HAJ7: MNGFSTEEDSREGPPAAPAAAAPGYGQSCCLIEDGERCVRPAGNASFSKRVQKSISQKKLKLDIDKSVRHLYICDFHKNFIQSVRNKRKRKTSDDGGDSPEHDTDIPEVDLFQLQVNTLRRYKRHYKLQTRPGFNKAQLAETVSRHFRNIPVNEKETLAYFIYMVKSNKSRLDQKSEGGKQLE
UniProt Q5VUM1: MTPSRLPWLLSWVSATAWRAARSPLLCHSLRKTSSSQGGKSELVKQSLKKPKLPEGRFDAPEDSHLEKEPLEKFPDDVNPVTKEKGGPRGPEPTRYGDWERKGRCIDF
UniProt Q9Y467: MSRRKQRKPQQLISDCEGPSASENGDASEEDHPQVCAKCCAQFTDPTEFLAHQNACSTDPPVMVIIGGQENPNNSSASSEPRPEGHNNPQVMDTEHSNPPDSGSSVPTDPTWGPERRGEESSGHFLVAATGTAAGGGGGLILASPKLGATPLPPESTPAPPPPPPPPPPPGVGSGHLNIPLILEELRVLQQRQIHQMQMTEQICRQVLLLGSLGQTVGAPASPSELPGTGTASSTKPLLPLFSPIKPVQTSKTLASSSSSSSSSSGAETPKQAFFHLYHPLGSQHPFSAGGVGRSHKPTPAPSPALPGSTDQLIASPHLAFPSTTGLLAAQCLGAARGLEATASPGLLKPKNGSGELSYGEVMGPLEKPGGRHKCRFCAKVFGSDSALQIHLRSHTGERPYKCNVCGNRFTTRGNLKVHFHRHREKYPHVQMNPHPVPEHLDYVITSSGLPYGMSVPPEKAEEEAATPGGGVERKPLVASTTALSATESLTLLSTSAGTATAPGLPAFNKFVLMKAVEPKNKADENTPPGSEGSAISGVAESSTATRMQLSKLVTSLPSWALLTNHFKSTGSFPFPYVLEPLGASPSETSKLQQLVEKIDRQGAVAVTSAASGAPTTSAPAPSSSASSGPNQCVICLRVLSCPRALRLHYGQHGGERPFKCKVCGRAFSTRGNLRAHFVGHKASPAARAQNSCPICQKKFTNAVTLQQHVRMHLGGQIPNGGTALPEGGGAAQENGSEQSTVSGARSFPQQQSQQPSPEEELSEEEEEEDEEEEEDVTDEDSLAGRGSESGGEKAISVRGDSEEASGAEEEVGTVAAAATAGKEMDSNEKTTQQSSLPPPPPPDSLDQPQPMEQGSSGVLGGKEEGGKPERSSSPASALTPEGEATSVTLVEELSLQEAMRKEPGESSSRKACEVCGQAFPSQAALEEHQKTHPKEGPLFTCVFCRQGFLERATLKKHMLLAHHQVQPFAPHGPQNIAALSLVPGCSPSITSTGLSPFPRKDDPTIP
UniProt Q9NTN9: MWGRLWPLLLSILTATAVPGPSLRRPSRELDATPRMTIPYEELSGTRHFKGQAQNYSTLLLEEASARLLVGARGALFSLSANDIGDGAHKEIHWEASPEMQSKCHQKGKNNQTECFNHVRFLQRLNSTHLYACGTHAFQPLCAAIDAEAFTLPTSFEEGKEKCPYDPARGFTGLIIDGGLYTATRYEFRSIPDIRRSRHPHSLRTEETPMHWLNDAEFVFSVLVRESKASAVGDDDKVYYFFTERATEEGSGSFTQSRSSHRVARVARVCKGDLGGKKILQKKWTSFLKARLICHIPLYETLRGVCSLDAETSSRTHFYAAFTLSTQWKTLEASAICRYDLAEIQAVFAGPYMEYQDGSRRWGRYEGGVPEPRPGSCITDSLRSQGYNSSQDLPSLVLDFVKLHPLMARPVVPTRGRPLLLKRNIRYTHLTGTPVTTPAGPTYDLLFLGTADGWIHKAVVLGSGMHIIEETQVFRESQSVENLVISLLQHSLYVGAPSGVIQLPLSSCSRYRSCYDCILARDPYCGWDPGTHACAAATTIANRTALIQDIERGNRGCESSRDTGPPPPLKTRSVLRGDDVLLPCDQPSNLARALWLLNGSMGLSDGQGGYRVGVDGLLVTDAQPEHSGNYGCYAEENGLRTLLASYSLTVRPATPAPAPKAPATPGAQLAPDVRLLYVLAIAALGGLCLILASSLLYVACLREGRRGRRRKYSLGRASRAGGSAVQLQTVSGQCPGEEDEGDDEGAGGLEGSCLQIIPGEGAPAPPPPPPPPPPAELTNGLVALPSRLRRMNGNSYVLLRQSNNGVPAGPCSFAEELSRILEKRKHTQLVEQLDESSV
UniProt Q99442: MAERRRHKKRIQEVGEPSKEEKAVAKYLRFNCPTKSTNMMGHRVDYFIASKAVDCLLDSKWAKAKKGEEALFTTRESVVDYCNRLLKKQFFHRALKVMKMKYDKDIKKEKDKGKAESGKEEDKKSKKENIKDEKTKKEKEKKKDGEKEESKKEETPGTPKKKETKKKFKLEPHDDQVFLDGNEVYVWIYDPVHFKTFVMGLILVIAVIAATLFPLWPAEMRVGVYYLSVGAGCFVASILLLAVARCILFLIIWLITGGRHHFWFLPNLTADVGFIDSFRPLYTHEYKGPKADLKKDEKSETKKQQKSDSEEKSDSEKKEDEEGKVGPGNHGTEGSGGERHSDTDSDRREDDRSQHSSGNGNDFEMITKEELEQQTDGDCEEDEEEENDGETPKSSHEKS
UniProt Q9UIL1: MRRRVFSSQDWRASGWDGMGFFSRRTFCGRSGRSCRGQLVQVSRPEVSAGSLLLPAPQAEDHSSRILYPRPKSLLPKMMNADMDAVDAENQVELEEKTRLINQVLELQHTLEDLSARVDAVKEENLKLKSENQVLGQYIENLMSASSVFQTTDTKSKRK
UniProt Q9UPU9: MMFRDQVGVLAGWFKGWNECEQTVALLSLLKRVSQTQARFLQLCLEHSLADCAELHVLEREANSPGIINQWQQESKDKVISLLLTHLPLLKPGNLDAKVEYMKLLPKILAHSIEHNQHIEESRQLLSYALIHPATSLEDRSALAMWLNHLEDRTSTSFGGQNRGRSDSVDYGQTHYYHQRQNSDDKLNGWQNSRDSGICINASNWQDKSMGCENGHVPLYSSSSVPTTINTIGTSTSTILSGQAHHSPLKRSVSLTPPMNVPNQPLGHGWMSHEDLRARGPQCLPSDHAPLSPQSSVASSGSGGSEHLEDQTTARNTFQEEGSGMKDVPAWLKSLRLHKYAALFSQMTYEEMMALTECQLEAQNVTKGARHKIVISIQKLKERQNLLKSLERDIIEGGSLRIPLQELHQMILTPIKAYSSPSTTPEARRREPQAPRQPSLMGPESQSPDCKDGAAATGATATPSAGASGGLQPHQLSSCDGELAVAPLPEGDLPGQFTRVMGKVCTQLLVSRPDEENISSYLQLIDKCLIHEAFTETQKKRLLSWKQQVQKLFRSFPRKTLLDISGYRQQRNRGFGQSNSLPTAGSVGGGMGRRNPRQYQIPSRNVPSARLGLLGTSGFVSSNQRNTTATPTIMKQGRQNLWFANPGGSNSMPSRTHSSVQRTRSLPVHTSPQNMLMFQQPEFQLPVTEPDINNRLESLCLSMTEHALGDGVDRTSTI
UniProt Q8IZE3: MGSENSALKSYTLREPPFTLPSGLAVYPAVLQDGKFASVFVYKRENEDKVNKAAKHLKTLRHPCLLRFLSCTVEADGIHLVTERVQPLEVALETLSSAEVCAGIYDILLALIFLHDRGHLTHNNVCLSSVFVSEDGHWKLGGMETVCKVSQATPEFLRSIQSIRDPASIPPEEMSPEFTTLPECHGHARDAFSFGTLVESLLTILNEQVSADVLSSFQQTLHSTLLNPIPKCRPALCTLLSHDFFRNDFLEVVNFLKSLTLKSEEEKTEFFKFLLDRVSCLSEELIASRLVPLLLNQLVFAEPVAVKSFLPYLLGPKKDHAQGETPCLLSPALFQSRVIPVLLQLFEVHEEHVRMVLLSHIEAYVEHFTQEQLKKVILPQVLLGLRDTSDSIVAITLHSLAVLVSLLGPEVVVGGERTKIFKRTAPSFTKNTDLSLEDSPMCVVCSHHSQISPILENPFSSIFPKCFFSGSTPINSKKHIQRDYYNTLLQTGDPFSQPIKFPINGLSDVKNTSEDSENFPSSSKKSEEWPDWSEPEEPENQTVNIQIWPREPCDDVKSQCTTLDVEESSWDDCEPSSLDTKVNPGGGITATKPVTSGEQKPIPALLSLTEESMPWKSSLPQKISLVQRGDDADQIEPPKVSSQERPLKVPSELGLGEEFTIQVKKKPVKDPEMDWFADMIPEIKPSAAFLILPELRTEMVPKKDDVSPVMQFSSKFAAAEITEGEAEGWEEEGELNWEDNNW
UniProt Q8WXD2: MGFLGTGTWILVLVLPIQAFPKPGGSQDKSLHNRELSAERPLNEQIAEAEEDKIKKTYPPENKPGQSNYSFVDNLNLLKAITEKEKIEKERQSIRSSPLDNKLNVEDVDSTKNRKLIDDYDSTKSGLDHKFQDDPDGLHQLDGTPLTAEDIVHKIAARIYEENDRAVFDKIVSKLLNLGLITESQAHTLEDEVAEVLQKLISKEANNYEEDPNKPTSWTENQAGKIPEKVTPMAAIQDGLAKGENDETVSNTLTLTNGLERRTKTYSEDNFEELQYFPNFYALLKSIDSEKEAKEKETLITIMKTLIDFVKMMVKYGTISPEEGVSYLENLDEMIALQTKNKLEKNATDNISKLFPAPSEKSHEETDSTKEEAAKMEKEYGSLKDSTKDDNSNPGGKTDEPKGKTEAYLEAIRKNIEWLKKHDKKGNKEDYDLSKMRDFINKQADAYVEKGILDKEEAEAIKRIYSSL
UniProt Q8NBX0: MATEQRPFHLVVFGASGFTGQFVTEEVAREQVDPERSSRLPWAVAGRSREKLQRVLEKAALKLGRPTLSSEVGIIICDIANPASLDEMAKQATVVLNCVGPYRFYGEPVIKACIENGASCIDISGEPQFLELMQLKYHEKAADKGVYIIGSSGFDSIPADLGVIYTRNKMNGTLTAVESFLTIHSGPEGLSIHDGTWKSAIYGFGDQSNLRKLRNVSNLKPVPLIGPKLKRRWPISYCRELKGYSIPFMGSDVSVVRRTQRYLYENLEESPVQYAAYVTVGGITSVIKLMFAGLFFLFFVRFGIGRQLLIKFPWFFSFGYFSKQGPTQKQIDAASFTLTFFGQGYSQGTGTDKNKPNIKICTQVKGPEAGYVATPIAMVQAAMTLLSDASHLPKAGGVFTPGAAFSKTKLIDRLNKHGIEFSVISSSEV

Tests used:
Assay in all cases: log2 fold change, soluble protein after heating vs DMSO (PISA); higher = thermal stabilisation; K562 lysate, 10 uM; active = over 0.2 and 3.5 SD of the protein, either way, in both replicates (recomputed)
erlotinib = compound: C#Cc1cccc(Nc2ncnc3cc(OCCOC)c(OCCOC)cc23)c1 [erlotinib]
Procedure, shortened: (§1)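 A 30 min treatment with 10 μM compound was applied to crude K562 extract at 1 mg/mL protein in PBS pH 7.4 with 1 mM MgCl2. Heating for 3 min spanned 48°C-58°C, after which aliquots were pooled, adjusted to 0.5% NP-40 at 4°C and spun at 21,000xg for 90 min. TMTpro 16plex LC-MS/MS of the supernatant, with channel sums equalised, gave values recorded as log-two fold change in thermal stability against solvent controls, from duplicates.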

[1] = compound: C/C(=N\NC(=O)C1=CC(=CC=C1)S(=O)(=O)N2CCOCC2)/C3=C(C=CC(=C3)Cl)O
Procedure, shortened: as §1

[2] = compound: C1=CC(=CC=C1C2=NC3=C(N2)C=C(C=C3)C(=O)N)OC4=CC=C(C=C4)Cl
Procedure, shortened: as §1

[3] = compound: C1=CC2=C(C=CC(=C2)/C=C\3/C(=O)NC(=NCC4=CC=CS4)S3)N=C1
Procedure, shortened: as §1

[4] = compound: C1=CC2=NC=CN=C2C=C1/C=C/3\C(=O)NC(=O)S3
Procedure, shortened: as §1

[5] = compound: C1=CC=C(C=C1)C2=NC(=C(N2)C3=CC=NC=C3)C4=CC(=C(C=C4)Cl)O
Procedure, shortened: as §1

[6] = compound: C1=CC=C2C(=C1)C3=NNC4=CC=CC(=C43)C2=O
Procedure, shortened: as §1

[7] = compound: C1CCN(C1)C(=O)NC2=CC=CC(=C2)NC3=NC=C(C(=N3)NCCC4=CN=CN4)Br
Procedure, shortened: as §1

[8] = compound: C1CN(CCC1(CC2=CC=C(C=C2)Cl)N)C3=NC=NC4=C3C=CN4
Procedure, shortened: as §1

IRAK-1-4 Inhibitor I = compound: C1COCCN1CCN2C3=CC=CC=C3N=C2NC(=O)C4=CC(=CC=C4)[N+](=O)[O-] [IRAK-1-4 Inhibitor I]
Procedure, shortened: as §1

ibrutinib = compound: C=CC(=O)N1CCC[C@@H](n2nc(-c3ccc(Oc4ccccc4)cc3)c3c(N)ncnc32)C1 [ibrutinib]
Procedure, shortened: as §1

[9] = compound: CC(=O)c1cnc2ccc(-c3cc(Cl)c(O)c(Cl)c3)nc2c1N[C@H]1CC[C@H](CN(C)C)CC1
Procedure, shortened: as §1

ralimetinib = compound: CC(C)(C)Cn1c(N)nc2ccc(-c3[nH]c(C(C)(C)C)nc3-c3ccc(F)cc3)nc21 [ralimetinib]
Procedure, shortened: as §1

[10] = compound: CC(C)(O)CC(=O)NCCn1ccc2ncnc(Nc3ccc(Oc4cccc(C(F)(F)F)c4)c(Cl)c3)c21
Procedure, shortened: as §1

[11] = compound: CC(C)C1=C2N=C(C=C(N2N=C1)NCC3=CC=CC=C3)NCCCCCCN
Procedure, shortened: as §1

[12] = compound: CC1=C(C(CC(=O)N1)C2=CC=C(C=C2)C(F)(F)F)C(=O)NC3=C(C=C4C(=C3)C=NN4)F
Procedure, shortened: as §1

[13] = compound: CC1=C(C2=C(C=C1)C(=O)C3=CC=CC=C3N2CCCN)C
Procedure, shortened: as §1

[14] = compound: CC1=C(C=C(C=C1)NC(=O)C2=CC(=CC=C2)C(C)(C)C#N)NC3=CC4=C(C=C3)N=CN(C4=O)C
Procedure, shortened: as §1

[15] = compound: CC1=C(C=C(C=C1)NC(=O)C2=CC(=CC=C2)N(C)C)NC(=O)C3=CC=C(C=C3)O
Procedure, shortened: as §1

[16] = compound: CC1=CC=C(C=C1)SC2=C3C=C(SC3=CN=C2)C(=O)N
Procedure, shortened: as §1

Measured: log2 fold change

SCLY (UniProt Q96I15)
inactive: erlotinib -0.007 | [1] -0.004 | [2] 0.034 | [3] 0.062 | [4] -0.037 | [5] -0.03 | [6] -0.012 | [7] -0.049 | [8] 0.01 | IRAK-1-4 Inhibitor I -0.01 | ibrutinib -0.018 | [9] 0.006 | ralimetinib 0.025 | [10] -0.02 | [11] 0.012 | [12] -0.002 | [13] -0.009 | [14] -0.013 | [15] -0.014 | [16] -0.004

SEPTIN7 (UniProt Q16181)
inactive: erlotinib -0.013 | [1] 0.018 | [2] 0.017 | [3] 0.003 | [4] 0.011 | [5] 0 | [6] 0.09 | [7] 0.001 | [8] -0.006 | IRAK-1-4 Inhibitor I 0.001 | ibrutinib -0.031 | [9] -0.022 | ralimetinib -0.001 | [10] -0.022 | [11] -0.005 | [12] -0.002 | [13] -0.02 | [14] 0.007 | [15] -0.013 | [16] 0.008

SELENOH (UniProt Q8IZQ5)
inactive: erlotinib 0.015 | [1] -0.019 | [2] 0.018 | [3] 0.005 | [4] -0.001 | [5] 0.042 | [6] 0.01 | [7] 0.006 | [8] 0.024 | IRAK-1-4 Inhibitor I 0.044 | ibrutinib -0.013 | [9] 0.029 | ralimetinib 0.027 | [10] -0.03 | [11] -0.013 | [12] -0.037 | [13] -0.01 | [14] 0.022 | [15] -0.008 | [16] 0.015

SEC11C (UniProt Q9BY50)
inactive: erlotinib 0.046 | [1] -0.029 | [2] -0.079 | [3] 0.021 | [4] 0.038 | [5] -0.167 | [6] -0.089 | IRAK-1-4 Inhibitor I 0.013 | ibrutinib 0.04 | [9] 0.011 | ralimetinib -0.008 | [10] 0.016 | [11] 0.007 | [12] 0.026 | [13] 0.017 | [14] 0.028 | [15] -0.113 | [16] -0.024

SDR39U1 (UniProt Q9NRG7)
inactive: erlotinib -0.058 | [2] 0.086 | [4] 0.008 | [5] 0.28 | IRAK-1-4 Inhibitor I -0.113 | ibrutinib 0.143 | [9] 0.233 | ralimetinib 0.018 | [10] -0.063 | [11] 0.086 | [12] 0.101 | [15] 0.048 | [16] 0.401

SELENOT (UniProt P62341)
inactive: erlotinib -0.039 | [2] 0.025 | [4] -0.235 | [5] -0.081 | [7] -0.163 | [8] 0.094 | IRAK-1-4 Inhibitor I 0.028 | ibrutinib -0.017 | [9] 0.019 | ralimetinib 0.044 | [10] -0.098 | [11] -0.038 | [12] -0.013 | [13] -0.177 | [14] 0.05 | [15] 0.056 | [16] -0.09

SAP30L (UniProt Q9HAJ7)
inactive: erlotinib 0.012 | [2] -0.021 | [5] 0.125 | IRAK-1-4 Inhibitor I -0.185 | ralimetinib -0.068 | [10] 0.014 | [11] -0.068 | [14] -0.028 | [15] 0.045

SDHAF4 (UniProt Q5VUM1)
inactive: erlotinib -0.036 | [1] 0.068 | [2] -0.025 | [3] -0.074 | [4] -0.083 | [6] -0.064 | [7] 0.038 | [8] 0.022 | ibrutinib 0.094 | [9] -0.028 | [11] -0.029 | [13] -0.06 | [14] -0.069 | [16] -0.055

SALL2 (UniProt Q9Y467)
inactive: erlotinib 0.143 | [2] 0.017 | [4] -0.053 | [5] -0.004 | [7] 0.056 | [8] -0.005 | IRAK-1-4 Inhibitor I -0.027 | ibrutinib -0.045 | [9] 0.147 | ralimetinib -0.022 | [10] -0.058 | [11] 0.041 | [12] 0.051 | [13] -0.008 | [14] -0.013 | [15] 0.028 | [16] -0.027

SEMA4G isoform 2 (UniProt Q9NTN9)
inactive: erlotinib 0.005 | [1] -0.137 | [2] -0.063 | [3] 0.032 | [6] -0.011 | [7] 0.034 | [8] -0.112 | [11] -0.013 | [13] -0.021 | [14] -0.137

SEC62 (UniProt Q99442)
inactive: erlotinib -0.046 | [1] -0.008 | [2] 0.018 | [3] 0.046 | [4] -0.021 | [5] 0.036 | [6] -0.022 | [7] -0.017 | [8] -0.009 | IRAK-1-4 Inhibitor I 0.042 | ibrutinib 0.002 | [9] -0.027 | ralimetinib -0.032 | [10] -0.058 | [11] 0.02 | [12] 0.013 | [13] -0.006 | [14] 0.022 | [15] 0.002 | [16] -0.015

SCOC (UniProt Q9UIL1)
inactive: erlotinib -0.076 | [2] 0.074 | [5] 0.134 | IRAK-1-4 Inhibitor I 0.004 | ralimetinib 0.115 | [10] -0.06 | [11] 0.028 | [13] -0.318 | [14] 0.123 | [15] 0.07

SAMD4A (UniProt Q9UPU9)
inactive: erlotinib -0.172 | [1] -0.014 | [2] 0.11 | [3] 0.097 | [4] -0.153 | [5] 0.11 | [6] -0.041 | [7] -0.046 | [8] 0.013 | IRAK-1-4 Inhibitor I 0.063 | ibrutinib -0.014 | [9] 0.052 | ralimetinib 0.395 | [10] 0.097 | [11] 0.094 | [13] -0.008 | [14] 0.025 | [15] 0.196 | [16] 0.088

SCYL3 isoform 2 (UniProt Q8IZE3)
inactive: erlotinib 0 | [1] -0.084 | [2] 0.047 | [3] 0.038 | [4] 0.014 | [5] 0.004 | [6] -0.054 | [7] -0.001 | [8] 0.008 | IRAK-1-4 Inhibitor I 0.027 | ibrutinib 0.014 | ralimetinib 0.002 | [10] -0.047 | [11] 0.01 | [12] 0.006 | [13] 0.03 | [14] 0.003 | [15] 0.1

Reprinted from the results shown (two entries):
SEC11C (UniProt Q9BY50)
inactive: erlotinib 0.046 | [1] -0.029 | [2] -0.079 | [3] 0.021 | [4] 0.038 | [5] -0.167 | [6] -0.089 | IRAK-1-4 Inhibitor I 0.013 | ibrutinib 0.04 | [9] 0.011 | ralimetinib -0.008 | [10] 0.016 | [11] 0.007 | [12] 0.026 | [13] 0.017 | [14] 0.028 | [15] -0.113 | [16] -0.024

SDR39U1 (UniProt Q9NRG7)
inactive: erlotinib -0.058 | [2] 0.086 | [4] 0.008 | [5] 0.28 | IRAK-1-4 Inhibitor I -0.113 | ibrutinib 0.143 | [9] 0.233 | ralimetinib 0.018 | [10] -0.063 | [11] 0.086 | [12] 0.101 | [15] 0.048 | [16] 0.401

More results

SCG3 (UniProt Q8WXD2)
inactive: erlotinib -0.037 | [1] -0.041 | [2] -0.008 | [3] -0.031 | [6] -0.116 | [7] 0.07 | [8] -0.006 | [11] 0.007 | [12] 0.018 | [13] 0.028 | [14] 0.027

SCCPDH (UniProt Q8NBX0)
inactive: erlotinib -0.213 | [1] -0.055 | [2] -0.027 | [3] 0.083 | [4] -0.243 | [5] 0.052 | [6] 0.185 | [7] -0.03 | [8] 0.026 | IRAK-1-4 Inhibitor I 0.016 | ibrutinib 0.155 | [9] -0.042 | ralimetinib 0.083 | [10] 0.112 | [11] 0.122 | [12] -0.017 | [13] -0.068 | [14] 0.055 | [15] -0.098 | [16] 0.187

SCGB1D2 (UniProt O95969)
inactive: erlotinib 0.173 | [2] -0.436 | [4] 0.226 | [5] 0.159 | [7] -0.007 | [8] -0.388 | IRAK-1-4 Inhibitor I -0.562 | ibrutinib -0.109 | [9] -0.181 | ralimetinib -0.053 | [10] 0.462 | [11] -0.104 | [12] 1.4 | [13] 0.741 | [14] -0.109 | [15] -0.159 | [16] -0.101

SCO1 (UniProt O75880)
inactive: erlotinib 0.008 | [1] -0.06 | [2] 0.036 | [3] -0.014 | [4] 0.011 | [5] 0.012 | [6] -0.045 | [7] 0.033 | [8] 0.068 | IRAK-1-4 Inhibitor I 0.006 | ibrutinib 0.029 | [9] 0.006 | ralimetinib -0.006 | [10] -0.072 | [11] -0.11 | [12] 0.044 | [13] -0.011 | [14] 0.021 | [15] -0.065 | [16] -0.023

SEPTIN8 (UniProt F8W8I8)
inactive: erlotinib -0.091 | [2] -0.253 | [5] 0.111 | IRAK-1-4 Inhibitor I 0.115 | [9] -0.086 | ralimetinib 0.004 | [10] -0.068 | [11] 0.008 | [12] -0.084 | [13] -0.012 | [15] -0.152 | [16] -0.173
